Earlier results in patent publication US20160096016A1, “METHODS AND SYSTEMS FOR REDUCING INFLAMMATION BY NEUROMODULATION AND ADMINISTRATION OF AN ANTI-INFLAMMATORY DRUG” (priority 2008, published 2016).
For at least one compound, name, drawing or mass did not settle the structure.

Tests used:
Settings in all cases: alpha7-dependent mechanism; cited from earlier work
mouse macrophages = tested on: mouse macrophages
human macrophages = tested on: human macrophages
mouse splenocytes = tested on: mouse splenocytes

Measured: LPS-induced TNF

CC(=O)OCC[N+](C)(C)C [acetylcholine]
attenuate LPS-induced TNF: all assays above
